Test results taken from ChEMBL document CHEMBL5329184, “Design, synthesis, electrochemistry and anti-trypanosomatid hit/lead identification of nitrofuranylazines” (RSC Med Chem, 2023).

Test system: THP-1
Assay: cells
Type: functional, cell-based
Settings: Homo sapiens, THP-1, 72 h

In the case of `O=C1OCCN1/N=C/c1ccc([N+](=O)[O-])o1` [FURAZOLIDONE], the IC50 is reported as > 100 µM.
